# Experimental data from the supplement of paper PMC8728848.
# Some of the results follow.
# Key:
# Assay in all cases: glycan array binding signal (z-score within array); higher = stronger binding
# Details in all cases: glycan notation: IUPAC condensed, linker removed
# [1] = target: GalNAc(b1-6)GalNAc
# In short: (§1)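 Glycan array data were curated from 3228 arrays in the Consortium for Functional Glycomics database and kept only where the protein sequence was available. Glycan names were converted to IUPAC-condensed notation, and columns mapping to the same glycan were averaged. The binding signal is a within-array Z-score, averaged across arrays of the same protein sequence at different concentrations or buffers and across linkers. Negative Z-scores can be read as non-binding.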
# [2] = target: Glc(a1-4)Glc
# In short: as §1
# [3] = target: Glc(a1-4)Glc(a1-4)Glc(a1-4)Glc
# In short: as §1
# [4] = target: Glc(a1-6)Glc(a1-6)Glc
# In short: as §1
# [5] = target: Glc(a1-6)Glc(a1-6)Glc(a1-6)Glc
# In short: as §1
# [6] = target: Glc(b1-4)Glc
# In short: as §1
# [7] = target: Glc(b1-6)Glc
# In short: as §1
# [8] = target: GlcA(b1-3)Gal
# In short: as §1
# [9] = target: GlcA(b1-3)GlcNAc
# In short: as §1
# [10] = target: GlcA(b1-6)Gal
# In short: as §1
# [11] = target: GlcNAc(a1-3)Gal(b1-4)GlcNAc
# In short: as §1
# [12] = target: GlcNAc(a1-4)Gal(b1-3)GlcNAc
# In short: as §1
# [13] = target: GlcNAc(a1-4)Gal(b1-4)GalNAc
# In short: as §1
# [14] = target: GlcNAc(a1-4)Gal(b1-4)GlcNAc
# In short: as §1
# [15] = target: GlcNAc(a1-4)Gal(b1-4)GlcNAc(b1-3)Gal(b1-4)Glc
# In short: as §1
# [16] = target: GlcNAc(a1-4)Gal(b1-4)GlcNAc(b1-3)Gal(b1-4)GlcNAc
# In short: as §1
# [17] = target: GlcNAc(a1-4)Gal(b1-4)GlcNAc(b1-3)Gal(b1-4)GlcNAc(b1-3)Gal(b1-4)GlcNAc
# In short: as §1
# [18] = target: GlcNAc(a1-4)Gal(b1-4)GlcNAc(b1-3)Gal(b1-4)[Fuc(a1-3)]GlcNAc(b1-3)Gal(b1-4)[Fuc(a1-3)]GlcNAc
# In short: as §1
# [19] = target: GlcNAc(a1-6)Gal(b1-4)GlcNAc
# In short: as §1
# [20] = target: GlcNAc(b1-2)Gal(b1-3)GalNAc
# In short: as §1
# [21] = target: GlcNAc(b1-2)Man(a1-3)[GlcNAc(b1-2)Man(a1-6)]Man(b1-4)GlcNAc(b1-4)GlcNAc
# In short: as §1
# [22] = target: GlcNAc(b1-2)Man(a1-3)[GlcNAc(b1-2)Man(a1-6)]Man(b1-4)GlcNAc(b1-4)[Fuc(a1-6)]GlcNAc
# In short: as §1
# [23] = target: GlcNAc(b1-2)Man(a1-3)[GlcNAc(b1-4)][GlcNAc(b1-2)Man(a1-6)]Man(b1-4)GlcNAc(b1-4)GlcNAc
# In short: as §1
# [24] = target: GlcNAc(b1-2)[GlcNAc(b1-4)]Man(a1-3)[GlcNAc(b1-2)Man(a1-6)]Man(b1-4)GlcNAc(b1-4)GlcNAc
# In short: as §1
# [25] = target: GlcNAc(b1-2)[GlcNAc(b1-4)]Man(a1-3)[GlcNAc(b1-4)][GlcNAc(b1-2)Man(a1-6)]Man(b1-4)GlcNAc(b1-4)GlcNAc
# In short: as §1
# [26] = target: GlcNAc(b1-2)[GlcNAc(b1-4)]Man(a1-3)[GlcNAc(b1-4)][GlcNAc(b1-2)[GlcNAc(b1-6)]Man(a1-6)]Man(b1-4)GlcNAc(b1-4)GlcNAc
# In short: as §1
# [27] = target: GlcNAc(b1-2)[GlcNAc(b1-6)]Man(a1-6)[GlcNAc(b1-2)Man(a1-3)]Man(b1-4)GlcNAc(b1-4)GlcNAc
# In short: as §1
# [28] = target: GlcNAc(b1-2)[GlcNAc(b1-6)]Man(a1-6)[GlcNAc(b1-2)Man(a1-3)][GlcNAc(b1-4)]Man(b1-4)GlcNAc(b1-4)GlcNAc
# In short: as §1
# [29] = target: GlcNAc(b1-3)Gal
# In short: as §1
# [30] = target: GlcNAc(b1-3)Gal(b1-3)GalNAc
# In short: as §1
# [31] = target: GlcNAc(b1-3)Gal(b1-4)Glc
# In short: as §1
# [32] = target: GlcNAc(b1-3)Gal(b1-4)GlcNAc
# In short: as §1
# [33] = target: GlcNAc(b1-3)Gal(b1-4)GlcNAc(b1-3)Gal(b1-4)GlcNAc
# In short: as §1
# [34] = target: GlcNAc(b1-3)GalNAc
# In short: as §1
# [35] = target: GlcNAc(b1-3)Man
# In short: as §1
# [36] = target: GlcNAc(b1-3)[GlcNAc(b1-4)][GlcNAc(b1-6)]GlcNAc
# In short: as §1
# [37] = target: GlcNAc(b1-3)[GlcNAc(b1-6)]Gal(b1-4)GlcNAc
# In short: as §1
# [38] = target: GlcNAc(b1-3)[GlcNAc(b1-6)]GalNAc
# In short: as §1
# [39] = target: GlcNAc(b1-4)Gal(b1-4)GlcNAc
# In short: as §1
# [40] = target: GlcNAc(b1-4)GlcNAc
# In short: as §1
# [41] = target: GlcNAc(b1-4)GlcNAc(b1-4)GlcNAc
# In short: as §1
# [42] = target: GlcNAc(b1-4)GlcNAc(b1-4)GlcNAc(b1-4)GlcNAc(b1-4)GlcNAc
# In short: as §1
# [43] = target: GlcNAc(b1-4)GlcNAc(b1-4)GlcNAc(b1-4)GlcNAc(b1-4)GlcNAc(b1-4)GlcNAc
# In short: as §1
# [44] = target: GlcNAc(b1-4)[GlcNAc(b1-6)]GalNAc
# In short: as §1
# [45] = target: GlcNAc(b1-6)Gal(b1-4)GlcNAc
# In short: as §1
# [46] = target: GlcNAc(b1-6)GalNAc
# In short: as §1
# [47] = target: GlcNAc3Prop(b1-4)GlcNAc
# In short: as §1
# [48] = target: GlcNAc6S(b1-3)Gal(b1-4)GlcNAc
# In short: as §1
# [49] = target: Kdn(a2-3)Gal(b1-3)GalNAc
# In short: as §1
# [50] = target: Kdn(a2-3)Gal(b1-3)GlcNAc
# In short: as §1
# [51] = target: Kdn(a2-3)Gal(b1-4)Glc
# In short: as §1
# [52] = target: Kdn(a2-3)Gal(b1-4)GlcNAc
# In short: as §1
# [53] = target: Kdn(a2-3)Gal(b1-4)[Fuc(a1-3)]GlcNAc
# In short: as §1
# [54] = target: Kdn(a2-6)Gal(b1-4)GlcNAc
# In short: as §1
# [55] = target: Man(a1-2)Man(a1-2)Man(a1-3)Man
# In short: as §1
# [56] = target: Man(a1-2)Man(a1-2)Man(a1-6)[Man(a1-3)]Man
# In short: as §1
# [57] = target: Man(a1-2)Man(a1-3)Man
# In short: as §1
# [58] = target: Man(a1-2)Man(a1-3)[Man(a1-2)Man(a1-6)]Man
# In short: as §1
# [59] = target: Man(a1-2)Man(a1-3)[Man(a1-2)Man(a1-6)]Man(a1-6)[Man(a1-2)Man(a1-2)Man(a1-3)]Man
# In short: as §1
# [60] = target: Man(a1-2)Man(a1-3)[Man(a1-2)Man(a1-6)]Man(a1-6)[Man(a1-2)Man(a1-2)Man(a1-3)]Man(b1-4)GlcNAc(b1-4)GlcNAc
# In short: as §1
binder,measurement,setting,value
"NanH (Corynebacterium diphtheriae), C6JSW6 (protein) MYSSNRTYSRAILGLSAVLTLSFTSLVAPVNAEEPETVVPATAELEGEVAATLPSAETGLLDAAPPKPVARGAAGDLQLPAVNEKEVFEEGRVIRAPEPDQSRCYRIPALVTAKNGDLLLAFDNRYGGGDGAKTWCRDAPYENMKRINRQNMQTDIQLYRSVDNGQSFEDFGYIAQGTADVRELSYTDPALVTDRTTGKIFAFFVRAYDYRVGQSSAGFNEGDVEAEIQKRDVQDTVVVESLDGGQTWGNMRLLSALTAKVSSISTGDTIFDGRGRFVTSGAGIQLQYGEHAGRLIVPISVDIDPKDSAKFINLAIYSDDHGQTWQAGIGTAGGAGFSGDVSKIVELSDGRLMMSSKDNDKPRWVSYSEDQGENWSTPKRKIIAPPQHPEKHNTGINVGLIRAYPNAPENSAAARVLLYSAPIDQRYSHKHTEDGRNNGWVMGSCDDGKTWSFGRQIEKNRFQYSSMTVMSDGNIGMVYESGDFSTGMNLKFAKFNMAWLGADCHSNEALGLTGDIDKEIVEAQEKAAEATKEAQEAAEKVQKLTEELAAARKENDELKNQVKGFKEAVGDLANEAEDLADKVFKLETAVTEAKEKATVAEKAASDAVTQLQKAESIAEEQKAKAESAAAEAQALREKLERLEGSILTVKENPEAEEIADLSSTAKDAADAARRAATDANGALSGQKQDEEKPAMGLMGILKVLAGIIPLVAIIATIFQTFRLPFNIPGMR",glycan array binding signal (z-score),[1],0.018
same,glycan array binding signal (z-score),[2],-0.111
same,glycan array binding signal (z-score),[3],1.08
same,glycan array binding signal (z-score),[4],-1.2
same,glycan array binding signal (z-score),[5],0.286
same,glycan array binding signal (z-score),[6],-0.108
same,glycan array binding signal (z-score),[7],0.666
same,glycan array binding signal (z-score),[8],2.74
same,glycan array binding signal (z-score),[9],-0.065
same,glycan array binding signal (z-score),[10],0.869
same,glycan array binding signal (z-score),[11],1.88
same,glycan array binding signal (z-score),[12],-0.516
same,glycan array binding signal (z-score),[13],0.038
same,glycan array binding signal (z-score),[14],-0.292
same,glycan array binding signal (z-score),[15],-1.54
same,glycan array binding signal (z-score),[16],3.02
same,glycan array binding signal (z-score),[17],-1.05
same,glycan array binding signal (z-score),[18],3.97
same,glycan array binding signal (z-score),[19],0.173
same,glycan array binding signal (z-score),[20],-0.307
same,glycan array binding signal (z-score),[21],-0.396
same,glycan array binding signal (z-score),[22],0.133
same,glycan array binding signal (z-score),[23],-1.53
same,glycan array binding signal (z-score),[24],-1.03
same,glycan array binding signal (z-score),[25],-0.214
same,glycan array binding signal (z-score),[26],-0.562
same,glycan array binding signal (z-score),[27],0.537
same,glycan array binding signal (z-score),[28],0.129
same,glycan array binding signal (z-score),[29],0.612
same,glycan array binding signal (z-score),[30],0.254
same,glycan array binding signal (z-score),[31],0.541
same,glycan array binding signal (z-score),[32],-0.02
same,glycan array binding signal (z-score),[33],2.52
same,glycan array binding signal (z-score),[34],-0.169
same,glycan array binding signal (z-score),[35],-0.51
same,glycan array binding signal (z-score),[36],-0.787
same,glycan array binding signal (z-score),[37],1
same,glycan array binding signal (z-score),[38],-0.047
same,glycan array binding signal (z-score),[39],-0.683
same,glycan array binding signal (z-score),[40],0.142
same,glycan array binding signal (z-score),[41],0.865
same,glycan array binding signal (z-score),[42],2.69
same,glycan array binding signal (z-score),[43],-0.273
same,glycan array binding signal (z-score),[44],-1.13
same,glycan array binding signal (z-score),[45],-0.056
same,glycan array binding signal (z-score),[46],-0.585
same,glycan array binding signal (z-score),[47],-0.028
same,glycan array binding signal (z-score),[48],0.131
same,glycan array binding signal (z-score),[49],0.343
same,glycan array binding signal (z-score),[50],0.225
same,glycan array binding signal (z-score),[51],-0.334
same,glycan array binding signal (z-score),[52],0.229
same,glycan array binding signal (z-score),[53],-0.213
same,glycan array binding signal (z-score),[54],-0.408
same,glycan array binding signal (z-score),[55],-0.136
same,glycan array binding signal (z-score),[56],2.2
same,glycan array binding signal (z-score),[57],0.086
same,glycan array binding signal (z-score),[58],-1.39
same,glycan array binding signal (z-score),[59],3.74
same,glycan array binding signal (z-score),[60],0.434

# For reference, part of the list above.
binder,measurement,setting,value
"NanH (Corynebacterium diphtheriae), C6JSW6 (protein) MYSSNRTYSRAILGLSAVLTLSFTSLVAPVNAEEPETVVPATAELEGEVAATLPSAETGLLDAAPPKPVARGAAGDLQLPAVNEKEVFEEGRVIRAPEPDQSRCYRIPALVTAKNGDLLLAFDNRYGGGDGAKTWCRDAPYENMKRINRQNMQTDIQLYRSVDNGQSFEDFGYIAQGTADVRELSYTDPALVTDRTTGKIFAFFVRAYDYRVGQSSAGFNEGDVEAEIQKRDVQDTVVVESLDGGQTWGNMRLLSALTAKVSSISTGDTIFDGRGRFVTSGAGIQLQYGEHAGRLIVPISVDIDPKDSAKFINLAIYSDDHGQTWQAGIGTAGGAGFSGDVSKIVELSDGRLMMSSKDNDKPRWVSYSEDQGENWSTPKRKIIAPPQHPEKHNTGINVGLIRAYPNAPENSAAARVLLYSAPIDQRYSHKHTEDGRNNGWVMGSCDDGKTWSFGRQIEKNRFQYSSMTVMSDGNIGMVYESGDFSTGMNLKFAKFNMAWLGADCHSNEALGLTGDIDKEIVEAQEKAAEATKEAQEAAEKVQKLTEELAAARKENDELKNQVKGFKEAVGDLANEAEDLADKVFKLETAVTEAKEKATVAEKAASDAVTQLQKAESIAEEQKAKAESAAAEAQALREKLERLEGSILTVKENPEAEEIADLSSTAKDAADAARRAATDANGALSGQKQDEEKPAMGLMGILKVLAGIIPLVAIIATIFQTFRLPFNIPGMR",glycan array binding signal (z-score),[53],-0.213
same,glycan array binding signal (z-score),[54],-0.408
same,glycan array binding signal (z-score),[55],-0.136
same,glycan array binding signal (z-score),[56],2.2
